According to patent US20150374663A1:
These are yes or no findings as the source states them, for the method shown. For some assays here: Binding can be weak; no strength is given. Each block holds one binder with its values, some of them ahead of it.

Assays:
[1] = target: type V tartrate-resistant acid phosphatase (TRAP) protein, immobilised on CM5 sensor chip; assay: SPR, TRAP immobilised on a CM5 chip, peptide injected
[2] = target: type V tartrate-resistant acid phosphatase (TRAP) protein, immobilised on CM5 sensor chip; assay: SPR, TRAP-functionalized surface
[3] = target: type V tartrate-resistant acid phosphatase (TRAP) protein, immobilised on CM5 sensor chip; assay: SPR, TRAP amine-coupled to CM5 chip, peptide in solution
[4] = target: type V tartrate-resistant acid phosphatase (TRAP) protein, immobilised on CM5 sensor chip; assay: SPR, TRAP-functionalized surface (n = 2)
[5] = target: type V tartrate-resistant acid phosphatase (TRAP) protein, immobilised on CM5 sensor chip; assay: SPR, TRAP-functionalized surface, peptide in solution (Table 1 series; KD cell printed N/A)

binding [1]: binds
binding [2]: binds
B1: TRAP-binding peptide (TBP), … (peptide)
peptide: TPLSYLKGLVTVG

binding [3]: no binding
binding [4]: no binding
binding [5]: no binding
B2: scrambled control peptide (SCP), … (peptide)
peptide: VPVGTLSYLKLTG
